From patent US9051310B2, “Nicotinamide derivative or salt thereof” (FUJIFILM Corporation, priority 2011, dated 2015) come the findings set out here.

pIC50: −log10 of the molar value. The structures given here were assigned with low confidence; some may be wrong.

The test concerns the target glutathione S-transferase (GST)-linked full-length human Syk protein (Homo sapiens, UniProt P43405). Kind of test: Syk enzyme assay. To be noted: read-out: IC50 of Syk-inhibitory activity; 0.83 nM Syk, time-resolved fluorescence; tested form: HCl.

One may read the pIC50 as the negative decadic logarithm of the IC50, by convention in mol/L.

In the case of `CC(=O)N1CC[C@@H](Nc2nc(Nc3cncc(C)c3)c(C(N)=O)cc2F)[C@@H](N)C1` (relative stereo), the pIC50 was 7.30 to 8.00.

Regarding `CC(=O)N1CC[C@@H](Nc2nc(Nc3ccnc(N4CCOCC4)c3F)c(C(N)=O)cc2F)[C@@H](N)C1` (relative stereo), the pIC50 was 7.00 to 7.30.

As for `CC(=O)N1CC[C@@H](Nc2nc(Nc3cnc(C)c(-n4nccn4)c3)c(C(N)=O)cc2F)[C@@H](N)C1` (relative stereo), the pIC50 is > 8.00.
